Reference: paper PMC7956269

biological target: Biotin-FOXC1 (mouse) (UniProt Q61572); assay: affinity purification with mass spectrometry; streptavidin-agarose precipitation of biotinylated FOXC1 from nuclear extract of stable HEK293T cells (293T-Biotin-FOXC1); IP350 buffer (350 mM NaCl, 20 mM Tris-HCl pH 7.5, 0.5% NP40, 1 mM EDTA, 10% glycerin); SDS-PAGE, LC-ESI-MS/MS; proteins of the 293T-Biotin control deducted

Binder	binding
Krt78 (protein, UniProt Q8N1N4 1-520) MSLSPCRAQRGFSARSACSARSRGRSRGGFSSRGGFSSRSLNSFGGCLEGSRGSTWGSGGRLGVRFGEWSGGPGLSLCPPGGIQEVTINQNLLTPLKIEIDPQFQVVRTQETQEIRTLNNQFASFIDKVRFLEQQNKVLETKWHLLQQQGLSGSQQGLEPVFEACLDQLRKQLEQLQGERGALDAELKACRDQEEEYKSKYEEEAHRRATLENDFVVLKKDVDGVFLSKMELEGKLEALREYLYFLKHLNEEELGQLQTQASDTSVVLSMDNNRYLDFSSIITEVRARYEEIARSSKAEAEALYQTKYQELQVSAQLHGDRMQETKVQISQLHQEIQRLQSQTENLKKQNASLQAAITDAEQRGELALKDAQAKVDELEAALRMAKQNLARLLCEYQELTSTKLSLDVEIATYRRLLEGEECRMSGECTSQVTISSVGGSAVMSGGVGGGLGSTCGLGSGKGSPGSCCTSIVTGGSNIILGSGKDPVLDSCSVSGSSAGSSCHTILKKTVESSLKTSITY	binds
Serpinh1 (protein, UniProt P50454 19-418) AEVKKPAAAAAPGTAEKLSPKAATLAERSAGLAFSLYQAMAKDQAVENILVSPVVVASSLGLVSLGGKATTASQAKAVLSAEQLRDEEVHAGLGELLRSLSNSTARNVTWKLGSRLYGPSSVSFADDFVRSSKQHYNCEHSKINFRDKRSALQSINEWAAQTTDGKLPEVTKDVERTDGALLVNAMFFKPHWDEKFHHKMVDNRGFMVTRSYTVGVMMMHRTGLYNYYDDEKEKLQIVEMPLAHKLSSLIILMPHHVEPLERLEKLLTKEQLKIWMGKMQKKAVAISLPKGVVEVTHDLQKHLAGLGLTEAIDKNKADLSRMSGKKDLYLASVFHATAFELDTDGNPFDQDIYGREELRSPKLFYADHPFIFLVRDTQSGSLLFIGRLVRPKGDKMRDEL	binds
Kdm3a (protein, UniProt Q9Y4C1 1-1321) MVLTLGESWPVLVGRRFLSLSAADGSDGSHDSWDVERVAEWPWLSGTIRAVSHTDVTKKDLKVCVEFDGESWRKRRWIEVYSLLRRAFLVEHNLVLAERKSPEISERIVQWPAITYKPLLDKAGLGSITSVRFLGDQQRVFLSKDLLKPIQDVNSLRLSLTDNQIVSKEFQALIVKHLDESHLLKGDKNLVGSEVKIYSLDPSTQWFSATVINGNPASKTLQVNCEEIPALKIVDPSLIHVEVVHDNLVTCGNSARIGAVKRKSSENNGTLVSKQAKSCSEASPSMCPVQSVPTTVFKEILLGCTAATPPSKDPRQQSTPQAANSPPNLGAKIPQGCHKQSLPEEISSCLNTKSEALRTKPDVCKAGLLSKSSQIGTGDLKILTEPKGSCTQPKTNTDQENRLESVPQALTGLPKECLPTKASSKAELEIANPPELQKHLEHAPSPSDVSNAPEVKAGVNSDSPNNCSGKKVEPSALACRSQNLKESSVKVDNESCCSRSNNKIQNAPSRKSVLTDPAKLKKLQQSGEAFVQDDSCVNIVAQLPKCRECRLDSLRKDKEQQKDSPVFCRFFHFRRLQFNKHGVLRVEGFLTPNKYDNEAIGLWLPLTKNVVGIDLDTAKYILANIGDHFCQMVISEKEAMSTIEPHRQVAWKRAVKGVREMCDVCDTTIFNLHWVCPRCGFGVCVDCYRMKRKNCQQGAAYKTFSWLKCVKSQIHEPENLMPTQIIPGKALYDVGDIVHSVRAKWGIKANCPCSNRQFKLFSKPASKEDLKQTSLAGEKPTLGAVLQQNPSVLEPAAVGGEAASKPAGSMKPACPASTSPLNWLADLTSGNVNKENKEKQPTMPILKNEIKCLPPLPPLSKSSTVLHTFNSTILTPVSNNNSGFLRNLLNSSTGKTENGLKNTPKILDDIFASLVQNKTTSDLSKRPQGLTIKPSILGFDTPHYWLCDNRLLCLQDPNNKSNWNVFRECWKQGQPVMVSGVHHKLNSELWKPESFRKEFGEQEVDLVNCRTNEIITGATVGDFWDGFEDVPNRLKNEKEPMVLKLKDWPPGEDFRDMMPSRFDDLMANIPLPEYTRRDGKLNLASRLPNYFVRPDLGPKMYNAYGLITPEDRKYGTTNLHLDVSDAANVMVYVGIPKGQCEQEEEVLKTIQDGDSDELTIKRFIEGKEKPGALWHIYAAKDTEKIREFLKKVSEEQGQENPADHDPIHDQSWYLDRSLRKRLHQEYGVQGWAIVQFLGDVVFIPAGAPHQVHNLYSCIKVAEDFVSPEHVKHCFWLTQEFRYLSQTHTNHEDKLQVKNVIYHAVKDAVAMLKASESSFGKP	binds
U2af1 (protein, UniProt Q01081 1-240) MAEYLASIFGTEKDKVNCSFYFKIGACRHGDRCSRLHNKPTFSQTIALLNIYRNPQNSSQSADGLRCAVSDVEMQEHYDEFFEEVFTEMEEKYGEVEEMNVCDNLGDHLVGNVYVKFRREEDAEKAVIDLNNRWFNGQPIHAELSPVTDFREACCRQYEMGECTRGGFCNFMHLKPISRELRRELYGRRRKKHRSRSRSRERRSRSRDRGRGGGGGGGGGGGGRERDRRRSRDRERSGRF	binds
Tex10 (protein, UniProt Q9NXF1 1-929) MTKKRKRQHDFQKVKLKVGKKKPKLQNATPTNFKTKTIHLPEQLKEDGTLPTNNRKLNIKDLLSQMHHYNAGVKQSALLGLKDLLSQYPFIIDAHLSNILSEVTAVFTDKDANVRLAAVQLLQFLAPKIRAEQISPFFPLVSAHLSSAMTHITEGIQEDSLKVLDILLEQYPALITGRSSILLKNFVELISHQQLSKGLINRDRSQSWILSVNPNRRLTSQQWRLKVLVRLSKFLQALADGSSRLRESEGLQEQKENPHATSNSIFINWKEHANDQQHIQVYENGGSQPNVSSQFRLRYLVGGLSGVDEGLSSTENLKGFIEIIIPLLIECWVEAVPPQLATPVGNGIEREPLQVMQQVLNIISLLWKLSKQQDETHKLESWLRKNYLIDFKHHFMSRFPYVLKEITKHKRKEPNKSIKHCTVLSNNIDHLLLNLTLSDIMVSLANASTLQKDCSWIEMIRKFVTETLEDGSRLNSKQLNRLLGVSWRLMQIQPNREDTETLIKAVYTLYQQRGLILPVRTLLLKFFSKIYQTEELRSCRFRYRSKVLSRWLAGLPLQLAHLGSRNPELSTQLIDIIHTAAARANKELLKSLQATALRIYDPQEGAVVVLPADSQQRLVQLVYFLPSLPADLLSRLSRCCIMGRLSSSLAAMLIGILHMRSSFSGWKYSAKDWLMSDVDYFSFLFSTLTGFSKEELTWLQSLRGVPHVIQTQLSPVLLYLTDLDQFLHHWDVTEAVFHSLLVIPARSQNFDILQSAISKHLVGLTVIPDSTAGCVFGVICKLLDHTCVVSETLLPFLASCCYSLLYFLLTIEKGEAEHLRKRDKLWGVCVSILALLPRVLRLMLQSLRVNRVGPEELPVVGQLLRLLLQHAPLRTHMLTNAILVQQIIKNITTLKSGSVQEQWLTDLHYCFNVYITGHPQGPSALATVY	binds
Ddx46 (protein, UniProt Q7L014 1-1031) MGRESRHYRKRSASRGRSGSRSRSRSPSDKRSKRGDDRRSRSRDRDRRRERSRSRDKRRSRSRDRKRLRRSRSRERDRSRERRRSRSRDRRRSRSRSRGRRSRSSSPGNKSKKTENRSRSKEKTDGGESSKEKKKDKDDKEDEKEKDAGNFDQNKLEEEMRKRKERVEKWREEQRKKAMENIGELKKEIEEMKQGKKWSLEDDDDDEDDPAEAEKEGNEMEGEELDPLDAYMEEVKEEVKKFNMRSVKGGGGNEKKSGPTVTKVVTVVTTKKAVVDSDKKKGELMENDQDAMEYSSEEEEVDLQTALTGYQTKQRKLLEPVDHGKIEYEPFRKNFYVEVPELAKMSQEEVNVFRLEMEGITVKGKGCPKPIKSWVQCGISMKILNSLKKHGYEKPTPIQTQAIPAIMSGRDLIGIAKTGSGKTIAFLLPMFRHIMDQRSLEEGEGPIAVIMTPTRELALQITKECKKFSKTLGLRVVCVYGGTGISEQIAELKRGAEIIVCTPGRMIDMLAANSGRVTNLRRVTYVVLDEADRMFDMGFEPQVMRIVDNVRPDRQTVMFSATFPRAMEALARRILSKPIEVQVGGRSVVCSDVEQQVIVIEEEKKFLKLLELLGHYQESGSVIIFVDKQEHADGLLKDLMRASYPCMSLHGGIDQYDRDSIINDFKNGTCKLLVATSVAARGLDVKHLILVVNYSCPNHYEDYVHRAGRTGRAGNKGYAYTFITEDQARYAGDIIKALELSGTAVPPDLEKLWSDFKDQQKAEGKIIKKSSGFSGKGFKFDETEQALANERKKLQKAALGLQDSDDEDAAVDIDEQIESMFNSKKRVKDMAAPGTSSVPAPTAGNAEKLEIAKRLALRINAQKNLGIESQDVMQQATNAILRGGTILAPTVSAKTIAEQLAEKINAKLNYVPLEKQEEERQDGGQNESFKRYEEELEINDFPQTARWKVTSKEALQRISEYSEAAITIRGTYFPPGKEPKEGERKIYLAIESANELAVQKAKAEITRLIKEELIRLQNSYQPTNKGRYKVL	binds
Tcof1 (protein, UniProt Q13428 1-1488) MAEARKRRELLPLIYHHLLRAGYVRAAREVKEQSGQKCFLAQPVTLLDIYTHWQQTSELGRKRKAEEDAALQAKKTRVSDPISTSESSEEEEEAEAETAKATPRLASTNSSVLGADLPSSMKEKAKAETEKAGKTGNSMPHPATGKTVANLLSGKSPRKSAEPSANTTLVSETEEEGSVPAFGAAAKPGMVSAGQADSSSEDTSSSSDETDVEGKPSVKPAQVKASSVSTKESPARKAAPAPGKVGDVTPQVKGGALPPAKRAKKPEEESESSEEGSESEEEAPAGTRSQVKASEKILQVRAASAPAKGTPGKGATPAPPGKAGAVASQTKAGKPEEDSESSSEESSDSEEETPAAKALLQAKASGKTSQVGAASAPAKESPRKGAAPAPPGKTGPAVAKAQAGKREEDSQSSSEESDSEEEAPAQAKPSGKAPQVRAASAPAKESPRKGAAPAPPRKTGPAAAQVQVGKQEEDSRSSSEESDSDREALAAMNAAQVKPLGKSPQVKPASTMGMGPLGKGAGPVPPGKVGPATPSAQVGKWEEDSESSSEESSDSSDGEVPTAVAPAQEKSLGNILQAKPTSSPAKGPPQKAGPVAVQVKAEKPMDNSESSEESSDSADSEEAPAAMTAAQAKPALKIPQTKACPKKTNTTASAKVAPVRVGTQAPRKAGTATSPAGSSPAVAGGTQRPAEDSSSSEESDSEEEKTGLAVTVGQAKSVGKGLQVKAASVPVKGSLGQGTAPVLPGKTGPTVTQVKAEKQEDSESSEEESDSEEAAASPAQVKTSVKKTQAKANPAAARAPSAKGTISAPGKVVTAAAQAKQRSPSKVKPPVRNPQNSTVLARGPASVPSVGKAVATAAQAQTGPEEDSGSSEEESDSEEEAETLAQVKPSGKTHQIRAALAPAKESPRKGAAPTPPGKTGPSAAQAGKQDDSGSSSEESDSDGEAPAAVTSAQVIKPPLIFVDPNRSPAGPAATPAQAQAASTPRKARASESTARSSSSESEDEDVIPATQCLTPGIRTNVVTMPTAHPRIAPKASMAGASSSKESSRISDGKKQEGPATQVSKKNPASLPLTQAALKVLAQKASEAQPPVARTQPSSGVDSAVGTLPATSPQSTSVQAKGTNKLRKPKLPEVQQATKAPESSDDSEDSSDSSSGSEEDGEGPQGAKSAHTLGPTPSRTETLVEETAAESSEDDVVAPSQSLLSGYMTPGLTPANSQASKATPKLDSSPSVSSTLAAKDDPDGKQEAKPQQAAGMLSPKTGGKEAASGTTPQKSRKPKKGAGNPQASTLALQSNITQCLLGQPWPLNEAQVQASVVKVLTELLEQERKKVVDTTKESSRKGWESRKRKLSGDQPAARTPRSKKKKKLGAGEGGEASVSPEKTSTTSKGKAKRDKASGDVKEKKGKGSLGSQGAKDEPEEELQKGMGTVEGGDQSNPKSKKEKKKSDKRKKDKEKKEKKKKAKKASTKDSESPSQKKKKKKKKTAEQTV	binds

No constants are given. Whether binding was seen depends on the method and setting. Binding seen in cells or lysates may run through a third protein. These calls come from enrichment with a bait or labelling near it, and not all partners need be listed.
